Assay results as given in PubChem BioAssay AID1508600 (Functional Genomics Laboratory (NCATS/FGL), 2020).
The whole screen tested about 53,000 sequences, of which about 3,700 (7%) were called active.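 How the source made its calls: active means gene knockdowns whose robust z-score for IL-1 alpha signal is at least 2 or at most -2, so actives lie on both sides; inactive means the rest.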 The list shows a part of the results.

assay: Components of the Cytosolic LPS Sensing Pathway: Gene Identification via Genome-wide siRNA Screen; settings: RAW264.7 macrophages, IL-1a HTRF, actives lie on both sides, screened at 100 nM (by protocol), cells primed 5 h with Pam3CSK4 first;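 further: robust z of the log signal after scaling to non-targeting control siRNA wells of the plate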
In short: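 IL-1a HTRF of supernatants after 24 hour LipidA transfection of Pam3CSK4-primed (5 hours) RAW264.7 cells, 48h post-siRNA transfection (100 nM). Scores: percent of plate negative-control median, then log-based robust z-score.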

z-score, inactive:
UUCCCACUCUGACUAUUUUTT against Olfr970 -0.0332
CCAGAAGUCUCAAAUUCUGTT against Ccl8 -0.112
GGCACCUGGAUUUUCUAUGTT against Crygs 0.26
GGGUGUUGACAGCUGUAAATT against C1s2 0.187
GGAACAUGACAUUUUUGUCTT against Smdt1 -0.561
GGAAGAAGAUGACAAUGAATT against Pak3 -1.18
CCUGUUGAGUAAGCAACAATT against 4932416K20Rik 0.369
CGAUGAUCCUUAAAGGAUUTT against Hes5 0.44
GGUGAUAGAAGUUUACAUGTT against Tnfsf4 0.513
GCCAUCGAGUGUGACGAGATT against Nagpa 0.651
GGUCAUUUCACUAGUUUUCTT against 9930014A18Rik -0.28
GGGCAAUAAUGCAAAGUAUTT against 4921522P10Rik 1.8
GGCAAUGUGUGUCUACAGUTT against Spdye4b -0.0613
GGGAAUCAAAUUCGUCUGCTT against Sdr42e1 1.06
GCUGUGGUAAACUGAAACUTT against Glis2 -1.89
CCUGCUCAGGACGACUUUUTT against Defa20 -1.63
GGUUGGACUGACUAUCCAUTT against Olfr984 1.02
CCAUCGUGCUAAUAAAUAATT against Gars -0.408
CCAUCCGCCUGUUAGAAAGTT against Mcm9 0.66
CGGUGUAAAAUCAUCAUAGTT against Pcdhgb6 -0.288
GGGAAAUUUGAACAACAACTT against Efnb3 0.47
GGAUGAUAUAUGUAACUUGTT against Nfe2l3 0.679
CGUGCUUAAACUUACUCCATT against Kif18a 0.348
GCAAAUUUGCCCUAAGGACTT against Lpl -1.28
GAGAUUUCUCCUGUUAUUUTT against Scd2 1.11
GCAAACAUUCGAGAUCUAUTT against Sel1l 1.56
GGCAAACAAAACAUUGUUGTT against Pla2r1 0.0339
GCGCGUCUCAAAGCACUUUTT against Tbx15 -1.45
GGAUCUUGAUACCCUCUACTT against Gp1ba -0.533
CCGGAUCAAGAGCUUUACCTT against Trim29 0.905
CCGUCUUCACCUGAUACAGTT against Ube2d2b 0.501
GCCCAUUAAUGCGUAUUUUTT against Mettl2 1.22
CCAGGAUUGAUUUAGAAAATT against BC107364 1.29
GCCUUUUAUACAUGUUUGATT against B130024G19Rik -1.55
GGGAGACCAUUGAAGGCAUTT against Gimap8 1.5
GGAGAGAAUAAACUCUACUTT against Tas2r130 -0.394
CCCACAUAAAAAACAGUUGTT against Cd274 1.14
GCACGGUGGUUCUAAAAGATT against Snw1 -1.22
CCUCCUGUCGGACAGUGAATT against Fam170a 1.22
GGAAGAAUGCCUACUGAUATT against Pcmtd1 0.849
GCUAAUCUUCCACUUGUAATT against Fnbp1l -1.8
GAGUAUCAUCUCCUUUUCUTT against Olfr395 -0.179
GCCGAUUUUACAUGUGAUCTT against Klf8 1.09
GGAGAUGAAGGGUAGCAUCTT against Thap11 0.999
CCAUUGGAUUGGAACUGGATT against Dhx57 -0.288
CCCUUAAAAUACAACGAUCTT against Prnd -0.183
GGAAAAAUGGAAACCUAAGTT against Nipal3 1.16
GCUGCAUAACUCUUACACATT against Trappc2l -0.132
GCAGAAUUCACCCGAAACUTT against Tnip1 1.75
GGUUCUGUACCAUCUUCAGTT against Rab40c -0.78
GGAGAUGCUCGCUUUUUACTT against Cutal 1.02
GCCUUGGACUGCUUUGGAUTT against Dync1li1 -0.379
GGUGGUUAGCGAUGAGAAUTT against Pabpc2 0.73
GGAGAAGACCAUAAAGAAGTT against Flywch1 -0.554
GCUUAUACGAAGAUAAUUGTT against Hmgb1 0.413
GGAGGAACGGAAAAAGGUUTT against 1700088E04Rik -1.07
GCAACAACUACGCAUGCUCTT against Snap25 -0.188
GGUCGUCCCAUCAAUGUGCTT against Cpa1 -0.543
GCAAUGGAAUUCUCGUGCCTT against Cth 0.744
CGAAGGAUUCAGAUAAAGUTT against Trim13 1.06
GGUUCGAGAAAACAACUACTT against Trmt5 0.0497
GGUUGUCUGUCUGUCCAUCTT against Marchf1 -1.14
GGAUUUGGUGCAUCUUCCGTT against Olfr609 -0.0126
GGUUAUUUCUUUGCUUUGCTT against Apod 0.929
GCAGGCAAAGUUCCUGAUATT against Cdh2 1.19
GGUGUUAUUUUACACAAAGTT against Gla 1.21
GGUUUUGCAUAAGAUCAUUTT against Rrp1 -0.709
GGCAUCGGGAGUUCCAAUUTT against St18 1.33
GGAAUUAGAAAAAGUUUCCTT against Ddx58 0.551
GGUUCUGUUCCAGUUUUAATT against Il21 1.19
GCCUGAGAAGAUUAUACCATT against Inpp5f 0.803
GGGAAUUAGGGCUCAAUGATT against Rbm41 -0.132
CGGUAGUCUUGUGUGUUGGTT against Rps27 0.63
CCUUCUGCGGCUCAGUCUATT against Bach2os -0.199
GGCCAACUUCCUUUUUAAATT against Tomm40 -0.0619
CCAGACAUCGUGCUUUACATT against Chrna3 1.42
GCUUAAAUAGCACAGAUUUTT against Mfsd11 0.187
GGAGAUUGCAUCCUACCUGTT against Camta2 0.829
GGAUGUGAAGCAGUUCUAUTT against Cd81 -0.179
GCUUCUAGGGACCUAUUAATT against Dhx30 -0.0854
GGAGCUAGAGCUGAAGGAUTT against Ifi27l2b 0.778
CCUGCUUCGAAAGAUCUCCTT against Serpina10 0.541
GGCAUUCAGAAAUCCAGUATT against Zdhhc2 -0.942
CGGCCACUAUAUGACAUUATT against Upk3b -0.12
GGAUGAGAUGGGAAUUGUATT against Otor 0.0183
GGGAGAACACAAACAGAAATT against Dab1 1.1
GCCAUAAGGCAGAAUCCAATT against P4htm -1.42
CCUAAGUUAUUGUUAACUGTT against Gata2 0.661
GGUUGUCCGGAUUGCUUGUTT against Olfr734 -0.502
GGAUAGCAACCAGUUUCAUTT against Mvd -0.832
GGCUGUGGAUAAAGCUAAUTT against Gpn2 0.311
GGGAAAGAUAAGCUCAAGGTT against Sh2d2a 1.32
GGACAAAGAAUUUCAACAATT against Gsg1 -1.25
GGACGAUUGCCAUAUGAACTT against Ice2 -0.99
CCGGCAGAAUAAGAAAGUATT against Gigyf2 -1.41
GCCAUGUUUCUGAGAACUUTT against Slc27a3 0.55
GGCAAAGUGGUAGAAAAAATT against Neurl3 0.555
GCUAAAUUCUUUCCUGAAGTT against Rdx -1

Reprinted from the results shown (5 entries):
z-score, inactive:
GGAAAAAUGGAAACCUAAGTT against Nipal3 1.16
GCUGCAUAACUCUUACACATT against Trappc2l -0.132
GCAGAAUUCACCCGAAACUTT against Tnip1 1.75
GGUUCUGUACCAUCUUCAGTT against Rab40c -0.78
GGAGAUGCUCGCUUUUUACTT against Cutal 1.02

Following part:

z-score, active:
GGAUGACUGAAUGAUGGGATT against Tcl1b5 -2.15
GGAAAUCGAGGUUACAAGUTT against Isy1 -2.64
GGCUACCAUGGACACAUCATT against Magea7-ps -2.31
GCAGCUGCACUAAAGAACGTT against Dlg1 2.9
GGAGCUUCUAGACUGUACCTT against Lrmp 2.03
GGUAGAUCAUGGCCAUCCUTT against Ntf5 2.04
GGAACAUCAAGGGAAUUAUTT against Zfp638 2.36
AUGAAAACCAUUCCCAAUUTT against Olfr435 5.22
GCUCUGUCUUAAGAGACUATT against Smo 2.39
